In US8410153B2, “Naphthalene isoxazoline invertebrate pest control agents” (E.I. du Pont de Nemours and Company, priority 2007, dated 2013):
Some of these results come from one statement about several compounds together.

How the values were obtained:
Type in all cases: in vivo
[1] = tested on: green peach aphid (Myzus persicae); experiment: Test F: control of green peach aphid on radish plant, contact and/or systemic; details: sprayed at 250 ppm; held 6 days
[2] = tested on: cat flea (Ctenocephalides felis); experiment: Test L: control of cat flea, treated filter paper in tube; details: 20 μL of 500 ppm solution on filter paper; evaluated 48 hours later
[3] = tested on: cat flea (Ctenocephalides felis); experiment: Test I: control of cat flea on orally dosed mouse, fleas applied two hours after dosing; details: CD-1 mouse, oral 10 mg/kg, evaluated 48 hours after flea application
[4] = tested on: American dog tick (Dermacentor variabilis); experiment: Test O: control of American dog tick on orally dosed beagle; details: oral 2.5 mg/kg, through 32 days
[5] = tested on: cat flea (Ctenocephalides felis); experiment: Test J: control of cat flea on orally dosed mouse, fleas applied twenty-four hours after dosing; details: CD-1 mouse, oral 10 mg/kg, evaluated 48 hours after flea application
[6] = tested on: potato leafhopper (Empoasca fabae); experiment: Test C: control of potato leafhopper on Soleil bean plant, contact and/or systemic; details: held 6 days
[7] = tested on: silverleaf whitefly (Bemisia tabaci); experiment: Test H: control of silverleaf whitefly nymphs on cotton plant; details: sprayed at 250 ppm; held 6 days; 2nd and 3rd instar nymphs
[8] = tested on: cat flea (Ctenocephalides felis); experiment: Test N: control of cat flea on orally dosed beagle; details: oral 2.5 mg/kg, through 29 days
[9] = tested on: relapsing fever tick (Ornithodoros turicata); experiment: Test M: control of relapsing fever tick, membrane feeding on treated bovine blood; details: 30 ppm in bovine blood; nymphs; evaluated 48 hours later
[10] = tested on: cat flea (Ctenocephalides felis); experiment: Test K: control of cat flea on subcutaneously dosed mouse; details: CD-1 mouse, subcutaneous 10 mg/kg; fleas applied two hours after dosing; evaluated 48 hours after flea application
[11] = tested on: cotton melon aphid (Aphis gossypii); experiment: Test G: control of cotton melon aphid on cotton plant, contact and/or systemic; details: sprayed at 250 ppm

O=C(CNC(=O)c1ccc(C2=NOC(c3cc(Cl)cc(C(F)(F)F)c3)(C(F)(F)F)C2)c2ccccc12)NCC(F)(F)F (stereo not shown) [Compound 62]
mortality [1]: at least 80% | flea mortality [2]: at least 50% | flea mortality [3]: at least 50% | tick mortality [4]: at least 90% | flea mortality [5]: at least 50% | control efficacy: mortality ([6]; sprayed at 50 ppm): ≥ 80% | control efficacy: mortality ([6]; sprayed at 250 ppm): ≥ 80% | mortality [7]: at least 80% | flea mortality [8]: at least 90%

O=C(CNC(=O)c1ccc(C2=NOC(c3cc(Cl)cc(Cl)c3)(C(F)(F)F)C2)c2ccccc12)NCC(F)(F)F (stereo not shown) [Compound 1]
tick mortality [9]: at least 50% | mortality [1]: at least 80% | flea mortality [2]: at least 50% | flea mortality [3]: at least 50% | flea mortality [10]: at least 50% | tick mortality [4]: at least 90% | flea mortality [5]: at least 50% | mortality [7]: at least 80% | mortality [11]: at least 80% | flea mortality [8]: at least 90%
